Assay results taken from the supplement of paper PMC7666118.
This is one part of the list.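 The calls were made as follows: active = dose-dependent thermal stabilisation significant by F-test of dose-response against flat model at 10% FDR; inactive = not significant.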

Chains of the proteins cited; added tags and fusions are not shown. Lines headed by an entry give the natural chain unless they say otherwise; changes in a name come on top.
UniProt Q96JY6: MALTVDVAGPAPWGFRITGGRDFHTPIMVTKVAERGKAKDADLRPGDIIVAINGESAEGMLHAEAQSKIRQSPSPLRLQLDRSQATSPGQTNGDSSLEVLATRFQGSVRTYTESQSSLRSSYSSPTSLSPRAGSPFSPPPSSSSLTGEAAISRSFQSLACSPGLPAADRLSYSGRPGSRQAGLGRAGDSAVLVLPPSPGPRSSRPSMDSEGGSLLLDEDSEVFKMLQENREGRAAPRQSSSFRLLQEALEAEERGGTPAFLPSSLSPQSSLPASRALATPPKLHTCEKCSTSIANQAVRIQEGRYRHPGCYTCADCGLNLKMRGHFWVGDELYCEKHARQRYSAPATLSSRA
UniProt P61457: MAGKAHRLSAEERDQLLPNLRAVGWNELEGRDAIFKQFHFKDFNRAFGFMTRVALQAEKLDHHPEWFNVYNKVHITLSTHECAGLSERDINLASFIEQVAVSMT
UniProt P30101, whole entry: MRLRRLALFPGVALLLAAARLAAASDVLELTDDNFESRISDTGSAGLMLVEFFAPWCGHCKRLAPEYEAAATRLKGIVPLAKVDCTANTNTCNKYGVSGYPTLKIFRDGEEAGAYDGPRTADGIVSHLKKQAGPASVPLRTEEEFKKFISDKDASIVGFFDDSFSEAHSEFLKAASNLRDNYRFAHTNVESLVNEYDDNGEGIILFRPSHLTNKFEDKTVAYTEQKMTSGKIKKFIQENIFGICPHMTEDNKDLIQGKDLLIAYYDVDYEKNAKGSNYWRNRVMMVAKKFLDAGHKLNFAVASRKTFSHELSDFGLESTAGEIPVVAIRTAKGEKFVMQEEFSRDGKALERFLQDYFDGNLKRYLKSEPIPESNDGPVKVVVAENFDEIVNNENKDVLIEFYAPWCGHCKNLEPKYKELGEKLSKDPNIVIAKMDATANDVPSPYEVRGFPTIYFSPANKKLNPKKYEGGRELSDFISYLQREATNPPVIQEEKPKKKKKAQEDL
UniProt O43175: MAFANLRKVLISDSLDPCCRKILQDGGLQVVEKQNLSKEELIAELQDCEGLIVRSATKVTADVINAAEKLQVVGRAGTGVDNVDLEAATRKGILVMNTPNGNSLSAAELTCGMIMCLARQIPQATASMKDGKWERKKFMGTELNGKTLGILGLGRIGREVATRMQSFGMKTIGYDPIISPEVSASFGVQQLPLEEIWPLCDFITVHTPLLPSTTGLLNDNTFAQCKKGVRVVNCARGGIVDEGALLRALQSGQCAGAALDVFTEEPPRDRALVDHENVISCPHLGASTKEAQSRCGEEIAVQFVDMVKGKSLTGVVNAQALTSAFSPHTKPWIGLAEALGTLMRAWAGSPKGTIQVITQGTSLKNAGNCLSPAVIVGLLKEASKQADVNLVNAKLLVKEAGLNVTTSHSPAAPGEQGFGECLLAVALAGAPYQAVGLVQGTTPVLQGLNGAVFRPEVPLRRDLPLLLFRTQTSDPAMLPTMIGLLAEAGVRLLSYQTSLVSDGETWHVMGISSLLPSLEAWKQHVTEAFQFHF
UniProt O14737: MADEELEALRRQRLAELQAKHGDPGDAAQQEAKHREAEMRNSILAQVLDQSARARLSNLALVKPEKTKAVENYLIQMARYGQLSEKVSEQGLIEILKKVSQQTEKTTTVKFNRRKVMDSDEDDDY
UniProt Q93100: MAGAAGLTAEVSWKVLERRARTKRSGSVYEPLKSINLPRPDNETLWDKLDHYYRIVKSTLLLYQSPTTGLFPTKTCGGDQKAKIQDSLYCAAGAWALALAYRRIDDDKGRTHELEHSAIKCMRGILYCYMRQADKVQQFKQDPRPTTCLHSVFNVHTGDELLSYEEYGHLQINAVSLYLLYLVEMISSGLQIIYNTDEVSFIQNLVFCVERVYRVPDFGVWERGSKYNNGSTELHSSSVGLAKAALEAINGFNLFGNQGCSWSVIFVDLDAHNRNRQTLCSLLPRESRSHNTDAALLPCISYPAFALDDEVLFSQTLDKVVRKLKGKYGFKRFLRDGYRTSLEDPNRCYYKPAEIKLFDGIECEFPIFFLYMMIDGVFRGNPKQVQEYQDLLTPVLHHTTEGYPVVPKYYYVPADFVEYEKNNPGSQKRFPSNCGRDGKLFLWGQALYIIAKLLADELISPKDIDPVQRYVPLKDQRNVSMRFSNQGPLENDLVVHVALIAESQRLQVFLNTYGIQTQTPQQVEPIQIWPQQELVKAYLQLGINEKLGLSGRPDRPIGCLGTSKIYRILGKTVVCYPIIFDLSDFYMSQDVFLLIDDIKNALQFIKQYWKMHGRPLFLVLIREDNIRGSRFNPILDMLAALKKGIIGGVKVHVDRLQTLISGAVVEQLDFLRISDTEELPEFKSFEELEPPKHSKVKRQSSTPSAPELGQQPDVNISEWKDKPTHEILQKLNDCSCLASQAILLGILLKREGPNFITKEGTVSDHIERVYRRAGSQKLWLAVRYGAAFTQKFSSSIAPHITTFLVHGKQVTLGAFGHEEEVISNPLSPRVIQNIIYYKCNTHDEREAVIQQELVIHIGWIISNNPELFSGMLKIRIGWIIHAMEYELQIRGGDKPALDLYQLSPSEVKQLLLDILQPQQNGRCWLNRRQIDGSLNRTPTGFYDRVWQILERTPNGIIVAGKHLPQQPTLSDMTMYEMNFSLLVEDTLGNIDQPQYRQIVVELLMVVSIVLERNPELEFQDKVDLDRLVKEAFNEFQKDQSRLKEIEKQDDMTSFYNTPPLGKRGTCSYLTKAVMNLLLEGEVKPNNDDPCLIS
UniProt Q13492: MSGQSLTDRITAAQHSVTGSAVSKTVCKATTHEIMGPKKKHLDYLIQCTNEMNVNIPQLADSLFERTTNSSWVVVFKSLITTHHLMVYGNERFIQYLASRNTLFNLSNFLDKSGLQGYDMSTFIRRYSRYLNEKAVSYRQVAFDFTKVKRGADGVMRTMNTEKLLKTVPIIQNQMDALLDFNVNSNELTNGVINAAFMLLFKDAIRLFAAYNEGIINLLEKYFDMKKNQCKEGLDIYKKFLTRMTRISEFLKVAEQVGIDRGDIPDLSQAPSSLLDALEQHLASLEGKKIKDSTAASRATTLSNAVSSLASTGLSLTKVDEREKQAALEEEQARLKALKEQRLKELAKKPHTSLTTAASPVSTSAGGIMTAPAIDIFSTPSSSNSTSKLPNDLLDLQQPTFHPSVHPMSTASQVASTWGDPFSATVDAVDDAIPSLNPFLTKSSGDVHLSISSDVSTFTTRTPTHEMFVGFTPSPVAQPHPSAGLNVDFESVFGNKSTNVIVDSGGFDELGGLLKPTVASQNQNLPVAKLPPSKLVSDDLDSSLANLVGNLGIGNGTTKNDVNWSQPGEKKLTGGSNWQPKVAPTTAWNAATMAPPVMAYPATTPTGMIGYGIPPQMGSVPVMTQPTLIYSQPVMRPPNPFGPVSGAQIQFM
UniProt P48454, whole entry: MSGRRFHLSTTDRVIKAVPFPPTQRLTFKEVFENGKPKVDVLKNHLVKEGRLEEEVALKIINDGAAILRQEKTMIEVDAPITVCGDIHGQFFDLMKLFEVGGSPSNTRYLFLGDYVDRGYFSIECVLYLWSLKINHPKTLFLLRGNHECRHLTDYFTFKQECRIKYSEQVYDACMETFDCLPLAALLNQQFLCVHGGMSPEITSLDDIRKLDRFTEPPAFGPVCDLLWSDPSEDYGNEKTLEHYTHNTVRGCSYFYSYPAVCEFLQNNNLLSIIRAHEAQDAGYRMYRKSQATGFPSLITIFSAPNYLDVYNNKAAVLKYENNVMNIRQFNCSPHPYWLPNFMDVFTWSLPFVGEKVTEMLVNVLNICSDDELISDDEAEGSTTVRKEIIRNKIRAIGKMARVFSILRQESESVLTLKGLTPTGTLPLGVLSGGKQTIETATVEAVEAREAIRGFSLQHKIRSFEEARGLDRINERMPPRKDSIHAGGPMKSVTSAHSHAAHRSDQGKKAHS
UniProt P09884: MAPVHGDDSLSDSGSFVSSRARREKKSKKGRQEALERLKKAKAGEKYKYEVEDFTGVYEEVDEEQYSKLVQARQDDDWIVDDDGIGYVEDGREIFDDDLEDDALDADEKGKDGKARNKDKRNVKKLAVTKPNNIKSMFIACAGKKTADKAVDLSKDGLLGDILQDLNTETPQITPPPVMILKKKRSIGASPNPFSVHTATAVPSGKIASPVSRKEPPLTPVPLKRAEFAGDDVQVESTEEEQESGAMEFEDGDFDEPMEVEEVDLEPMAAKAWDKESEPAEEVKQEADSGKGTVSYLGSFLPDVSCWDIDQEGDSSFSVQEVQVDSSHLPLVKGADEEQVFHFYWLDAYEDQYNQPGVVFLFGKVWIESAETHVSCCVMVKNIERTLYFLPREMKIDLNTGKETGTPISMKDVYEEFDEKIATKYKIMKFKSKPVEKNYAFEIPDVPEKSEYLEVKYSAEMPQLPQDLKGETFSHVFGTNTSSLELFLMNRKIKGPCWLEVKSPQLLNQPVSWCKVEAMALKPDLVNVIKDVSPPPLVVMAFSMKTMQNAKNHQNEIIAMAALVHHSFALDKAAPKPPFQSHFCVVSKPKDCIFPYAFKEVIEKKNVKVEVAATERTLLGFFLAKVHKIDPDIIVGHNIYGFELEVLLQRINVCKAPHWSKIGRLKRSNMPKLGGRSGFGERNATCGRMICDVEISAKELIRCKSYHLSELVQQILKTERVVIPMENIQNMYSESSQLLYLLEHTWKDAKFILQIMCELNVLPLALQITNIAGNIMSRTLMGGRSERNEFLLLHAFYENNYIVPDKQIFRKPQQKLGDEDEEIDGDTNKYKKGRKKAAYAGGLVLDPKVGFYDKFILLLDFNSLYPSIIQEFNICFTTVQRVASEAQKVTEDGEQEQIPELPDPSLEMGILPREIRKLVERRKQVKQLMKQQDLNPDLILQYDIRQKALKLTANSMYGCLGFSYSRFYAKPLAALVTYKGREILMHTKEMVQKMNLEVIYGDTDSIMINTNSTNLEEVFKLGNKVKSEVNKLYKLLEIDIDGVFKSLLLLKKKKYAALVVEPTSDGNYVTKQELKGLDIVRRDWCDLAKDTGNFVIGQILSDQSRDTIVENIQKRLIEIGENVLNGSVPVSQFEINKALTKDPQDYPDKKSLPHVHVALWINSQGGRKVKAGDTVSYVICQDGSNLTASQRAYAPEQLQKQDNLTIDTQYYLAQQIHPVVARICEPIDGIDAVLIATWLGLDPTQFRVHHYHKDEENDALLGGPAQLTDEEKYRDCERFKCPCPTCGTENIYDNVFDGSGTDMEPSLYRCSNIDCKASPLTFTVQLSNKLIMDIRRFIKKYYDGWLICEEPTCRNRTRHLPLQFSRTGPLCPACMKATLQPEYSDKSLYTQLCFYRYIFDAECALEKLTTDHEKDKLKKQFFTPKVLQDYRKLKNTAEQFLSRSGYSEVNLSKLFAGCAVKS

Each target was assayed with Nc1nc2c(ncn2[C@@H]2O[C@H](COP(=O)(O)OP(=O)(O)OP(=O)(O)O)[C@@H](O)[C@H]2O)c(=O)[nH]1 (assay: dose-dependent thermal stabilisation call (2D-TPP, DLPTP, 10% FDR) (binary (1 = stabilised)); higher = stabilised by the compound). Conditions: system: Jurkat gel-filtered lysate; concentration range 1-500 µM.

dose-dependent thermal stabilisation call, inactive:
PDLIM2 (UniProt Q96JY6) 0
PCBD1 (UniProt P61457) 0
PDIA3 (UniProt P30101) 0
PHGDH (UniProt O43175) 0
PDCD5 (UniProt O14737) 0
PHKB (UniProt Q93100) 0
PICALM (UniProt Q13492) 0
PPP3CC (UniProt P48454) 0
PPP3CB (UniProt P16298) 0
POLA1 (UniProt P09884) 0

Taken from above (2 entries):
dose-dependent thermal stabilisation call, inactive:
PDIA3 (UniProt P30101) 0
PHGDH (UniProt O43175) 0
